Results are given in words; binding and its absence hold for the method and conditions named. Binding seen in cells or lysates may run through a third protein. Some binding calls cover weakened binding; strength is not graded here.
Molecular target: Connexin 43 (human (endogenous in human breast cancer cell lines; line of the co-IP not stated)) (UniProt P17302)
Assay: co-IP; antibody (Cx43 CST#3512 or Rab31 proteintech#15485-1-AP; IgG as control) on protein A/G magnetic beads, protein supernatant of lysed cells rotated at 4 °C overnight, washed with PBST, Western blot; cell line not stated

Sequences of proteins named here, by UniProt entry; tags and fusion partners are left off.
UniProt P17302: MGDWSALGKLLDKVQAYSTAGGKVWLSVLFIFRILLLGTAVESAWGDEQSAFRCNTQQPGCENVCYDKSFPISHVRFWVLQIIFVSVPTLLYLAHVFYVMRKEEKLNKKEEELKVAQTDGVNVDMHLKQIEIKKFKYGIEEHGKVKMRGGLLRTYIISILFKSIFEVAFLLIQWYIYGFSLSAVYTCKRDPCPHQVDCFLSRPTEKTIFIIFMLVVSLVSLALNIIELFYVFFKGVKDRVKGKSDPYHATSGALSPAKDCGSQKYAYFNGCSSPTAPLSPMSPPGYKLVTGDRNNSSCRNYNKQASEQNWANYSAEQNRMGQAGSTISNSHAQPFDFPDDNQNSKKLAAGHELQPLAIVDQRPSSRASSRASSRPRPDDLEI

binding: binds
B1: Ras-related protein Rab-31 (protein, UniProt Q13636 1-195)
chain: MMAIRELKVCLLGDTGVGKSSIVCRFVQDHFDHNISPTIGASFMTKTVPCGNELHKFLIWDTAGQERFHSLAPMYYRGSAAAVIVYDITKQDSFYTLKKWVKELKEHGPENIVMAIAGNKCDLSDIREVPLKDAKEYAESIGAIVVETSAKNAINIEELFQGISRQIPPLDPHENGNNGTIKVEKPTMQASRRCC

— PMC12730575
